# According to publication PMC4419654, “LSD1 and HY5 antagonistically regulate red light induced-programmed cell death in Arabidopsis” (Frontiers in Plant Science, 2015):
# Results are given in words; binding and its absence hold for the method and conditions named.
# Tests used:
# [1] = molecular target: lesion simulating disease 1 (LSD1) (Arabidopsis (endogenous in Arabidopsis Col-0 plants)) (UniProt P94077); assay: condition: only control plants, without RL treatment; immunoblot of plant extract made without DTT; total protein of control (normal light) WT plants extracted without DTT; LSD1 detected
# [2] = molecular target: lesion simulating disease 1 (LSD1) (Arabidopsis (endogenous in Arabidopsis Col-0 plants)) (UniProt P94077); assay: condition: only with DTT (50 mM) in the extraction buffer; immunoblot of plant extract made with DTT; total protein of control, RL, DCMU and DCMU + RL treated WT plants extracted with 50 mM DTT in the extraction buffer; LSD1 detected
binder,measurement,setting,value
"lesion simulating disease 1 (LSD1) (natural protein, UniProt P94077 1-189, looked up, lesion simulating disease 1 (LSD1), C2C2 zinc finger protein with three zinc finger domains, Arabidopsis; detected with LSD1 antibody (Agrisera); source: endogenous, Arabidopsis WT plant total protein extract) MKVADMQDQLVCHGCRNLLMYPRGASNVRCALCNTINMVPPPPPPHDMAHIICGGCRTMLMYTRGASSVRCSCCQTTNLVPAHSNQVAHAPSSQVAQINCGHCRTTLMYPYGASSVKCAVCQFVTNVNMSNGRVPLPTNRPNGTACPPSTSTSTPPSQTQTVVVENPMSVDESGKLVSNVVVGVTTDKK",binding,[1],no binding
same,binding,[2],no binding
